Measurements published in patent CN101357942A.
No constants are given. Whether binding was seen depends on the method and setting. Some binding calls cover weakened binding; strength is not graded here.

Assays:
[1] = biological target: 天然Stx2 (natural Shiga toxin II of enterohaemorrhagic E. coli O157:H7) (肠出血性大肠杆菌(EHEC) O157:H7) (UniProt P09385); assay: Western blot on natural Stx2
[2] = biological target: 天然Stx2 (natural Shiga toxin II of enterohaemorrhagic E. coli O157:H7) (肠出血性大肠杆菌(EHEC) O157:H7) (UniProt P09385); assay: indirect ELISA on coated natural Stx2 (2 ug/ml), antibody 0.2-12.8 ug/ml

B1: 1F2单克隆抗体 (monoclonal antibody 1F2, from hybridoma CCTCC C200822) (antibody, V domains shown)
VH: SGGGLVQPGGSLKLSCAASGFTFSVYGMSWVRQTPDKRLELVATINNNGGSTYYPDSVKGRFTISRDNAKNTLYLQMSSLKSEDTAMYYCASIPLFGNYWGQGTSVTVSS
VL: MTQTPLSLPVSLGDQASISCRSSQSIVHSNGNTYLEWYLQKPGQSPKFLIYKVSRFSGVPDRFSGSGSGTDFTLKISRVEAEDLGVYYCFQGSHVPWTFGGGTKLEIKR
- binding [1]: binds
- binding [2]: binds
